Measured values taken from paper PMC3999155.
These are yes or no findings as the source states them, for the method shown. Binding seen in cells or lysates may run through a third protein. Some binding calls cover weakened binding; strength is not graded here. For part of these data: Tags and fused reporters may be left off the sequences shown.

Amino acid sequences for entries named in this document (tags omitted).
UniProt Q96FW1: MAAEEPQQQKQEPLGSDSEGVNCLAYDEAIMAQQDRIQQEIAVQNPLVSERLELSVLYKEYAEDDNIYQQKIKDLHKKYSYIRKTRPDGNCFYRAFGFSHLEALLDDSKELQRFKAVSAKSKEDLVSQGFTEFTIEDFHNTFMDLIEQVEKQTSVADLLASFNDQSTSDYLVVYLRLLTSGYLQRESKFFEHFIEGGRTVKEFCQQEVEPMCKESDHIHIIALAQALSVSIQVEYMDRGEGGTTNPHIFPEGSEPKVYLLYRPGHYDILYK
UniProt Q9HBL8: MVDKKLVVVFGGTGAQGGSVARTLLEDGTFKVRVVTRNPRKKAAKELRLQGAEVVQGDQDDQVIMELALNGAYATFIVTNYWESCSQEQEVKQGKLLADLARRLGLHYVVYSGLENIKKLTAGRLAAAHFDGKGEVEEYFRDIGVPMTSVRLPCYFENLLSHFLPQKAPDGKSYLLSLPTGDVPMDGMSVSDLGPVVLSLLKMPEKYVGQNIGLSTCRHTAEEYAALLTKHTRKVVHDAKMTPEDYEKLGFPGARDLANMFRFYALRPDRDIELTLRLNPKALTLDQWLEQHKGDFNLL

Experiments:
Assay in all cases: co-IP; HEK293T transfected with both tagged partners, harvested 48 h after transfection; IP by one tag, IB by the other; with or without SeV (40 HAU/ml), with or without co-expressed HSCARG or HSCARG shRNA
Flag-TRAF3 109–347 = target: T1, Flag-TRAF3 109–347 (UniProt Q13114)
T1 sequence: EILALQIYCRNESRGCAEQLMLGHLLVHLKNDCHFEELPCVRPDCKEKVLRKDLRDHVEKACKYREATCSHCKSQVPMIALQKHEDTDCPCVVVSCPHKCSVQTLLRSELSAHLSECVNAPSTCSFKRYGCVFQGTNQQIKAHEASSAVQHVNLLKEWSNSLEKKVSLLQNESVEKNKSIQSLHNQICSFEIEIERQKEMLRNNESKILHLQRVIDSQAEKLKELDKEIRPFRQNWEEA

Flag-OTUB1 = Flag-OTUB1 (UniProt Q96FW1)
Flag-TBK1 = target: T2, Flag-TBK1 (UniProt Q9UHD2)
T2 sequence: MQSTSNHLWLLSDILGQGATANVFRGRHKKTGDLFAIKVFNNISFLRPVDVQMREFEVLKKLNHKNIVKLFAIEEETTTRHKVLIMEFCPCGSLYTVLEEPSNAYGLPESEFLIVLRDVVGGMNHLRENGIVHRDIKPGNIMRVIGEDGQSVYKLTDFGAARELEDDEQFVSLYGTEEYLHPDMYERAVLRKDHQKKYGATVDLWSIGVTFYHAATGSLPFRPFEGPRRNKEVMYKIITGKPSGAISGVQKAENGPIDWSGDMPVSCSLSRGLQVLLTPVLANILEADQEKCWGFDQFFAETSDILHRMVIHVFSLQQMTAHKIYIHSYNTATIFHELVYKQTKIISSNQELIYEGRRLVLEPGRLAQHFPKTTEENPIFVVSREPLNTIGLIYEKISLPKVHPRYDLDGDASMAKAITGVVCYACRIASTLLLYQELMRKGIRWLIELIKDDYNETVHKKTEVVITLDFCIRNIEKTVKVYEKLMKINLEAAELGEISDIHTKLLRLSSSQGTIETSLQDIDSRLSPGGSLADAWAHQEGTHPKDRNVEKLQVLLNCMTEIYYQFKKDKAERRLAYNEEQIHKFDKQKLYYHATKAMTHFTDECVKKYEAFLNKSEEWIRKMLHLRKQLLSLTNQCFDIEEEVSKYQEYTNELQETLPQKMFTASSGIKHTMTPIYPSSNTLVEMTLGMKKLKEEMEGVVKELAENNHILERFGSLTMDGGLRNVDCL

Q: Which results are given for HA-HSCARG (from UniProt Q9HBL8 1-299)?
A: binding (Flag-TRAF3 109–347): binds; binding (Flag-OTUB1): binds

Q: With Myc-HSCARG (from UniProt Q9HBL8 1-299) as the substance, how does the binding (Flag-TBK1) read?
A: no binding
